# Laboratory results taken from the supplement of paper PMC8728848.
# The list shows a part of the results.
# Experiments:
# Test in all cases: glycan array binding signal (z-score within array); higher = stronger binding
# Conditions in all cases: glycan notation: IUPAC condensed, linker removed
# Neu5Ac(a2-3)Gal(b1-4)Glc = biological target: Neu5Ac(a2-3)Gal(b1-4)Glc
# How it was run: (§1)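 The Consortium for Functional Glycomics database supplied 3228 glycan arrays, of which those lacking an available protein sequence were dropped. The binding signal, a within-array Z-score, was averaged across arrays of the same protein sequence and across linkers. Negative scores can be read as non-binding.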
# [1] = biological target: Neu5Ac(a2-3)Gal(b1-4)GlcNAc
# How it was run: as §1
# [2] = biological target: Neu5Ac(a2-3)Gal(b1-4)GlcNAc(b1-2)Man
# How it was run: as §1
# [3] = biological target: Neu5Ac(a2-3)Gal(b1-4)GlcNAc(b1-2)Man(a1-3)[GlcNAc(b1-4)][Neu5Ac(a2-3)Gal(b1-4)GlcNAc(b1-2)Man(a1-6)]Man(b1-4)GlcNAc(b1-4)GlcNAc
# How it was run: as §1
# [4] = biological target: Neu5Ac(a2-3)Gal(b1-4)GlcNAc(b1-2)Man(a1-3)[Neu5Ac(a2-3)Gal(b1-4)GlcNAc(b1-2)Man(a1-6)]Man(b1-4)GlcNAc(b1-4)GlcNAc
# How it was run: as §1
# [5] = biological target: Neu5Ac(a2-3)Gal(b1-4)GlcNAc(b1-2)Man(a1-3)[Neu5Ac(a2-3)Gal(b1-4)GlcNAc(b1-2)Man(a1-6)]Man(b1-4)GlcNAc(b1-4)[Fuc(a1-6)]GlcNAc
# How it was run: as §1
# [6] = biological target: Neu5Ac(a2-3)Gal(b1-4)GlcNAc(b1-2)Man(a1-3)[Neu5Ac(a2-6)Gal(b1-4)GlcNAc(b1-2)Man(a1-6)]Man(b1-4)GlcNAc(b1-4)GlcNAc
# How it was run: as §1
# [7] = biological target: Neu5Ac(a2-3)Gal(b1-4)GlcNAc(b1-2)[Neu5Ac(a2-3)Gal(b1-4)GlcNAc(b1-4)]Man(a1-3)[GlcNAc(b1-4)][Neu5Ac(a2-3)Gal(b1-4)GlcNAc(b1-2)[Neu5Ac(a2-3)Gal(b1-4)GlcNAc(b1-6)]Man(a1-6)]Man(b1-4)GlcNAc(b1-4)GlcNAc
# How it was run: as §1
# [8] = biological target: Neu5Ac(a2-3)Gal(b1-4)GlcNAc(b1-2)[Neu5Ac(a2-3)Gal(b1-4)GlcNAc(b1-4)]Man(a1-3)[GlcNAc(b1-4)][Neu5Ac(a2-3)Gal(b1-4)GlcNAc(b1-4)Man(a1-6)]Man(b1-4)GlcNAc(b1-4)GlcNAc
# How it was run: as §1
# [9] = biological target: Neu5Ac(a2-3)Gal(b1-4)GlcNAc(b1-2)[Neu5Ac(a2-3)Gal(b1-4)GlcNAc(b1-6)]Man(a1-6)[Neu5Ac(a2-3)Gal(b1-4)GlcNAc(b1-2)Man(a1-3)]Man(b1-4)GlcNAc(b1-4)GlcNAc
# How it was run: as §1
# [10] = biological target: Neu5Ac(a2-3)Gal(b1-4)GlcNAc(b1-2)[Neu5Ac(a2-3)Gal(b1-4)GlcNAc(b1-6)]Man(a1-6)[Neu5Ac(a2-3)Gal(b1-4)GlcNAc(b1-2)Man(a1-3)][GlcNAc(b1-4)]Man(b1-4)GlcNAc(b1-4)GlcNAc
# How it was run: as §1
# [11] = biological target: Neu5Ac(a2-3)Gal(b1-4)GlcNAc(b1-3)Gal
# How it was run: as §1
# [12] = biological target: Neu5Ac(a2-3)Gal(b1-4)GlcNAc(b1-3)Gal(b1-3)GlcNAc
# How it was run: as §1
# [13] = biological target: Neu5Ac(a2-3)Gal(b1-4)GlcNAc(b1-3)Gal(b1-4)GlcNAc
# How it was run: as §1
# [14] = biological target: Neu5Ac(a2-3)Gal(b1-4)GlcNAc(b1-3)Gal(b1-4)GlcNAc(b1-2)Man(a1-3)[Neu5Ac(a2-3)Gal(b1-4)GlcNAc(b1-3)Gal(b1-4)GlcNAc(b1-2)Man(a1-6)]Man(b1-4)GlcNAc(b1-4)GlcNAc
# How it was run: as §1
# [15] = biological target: Neu5Ac(a2-3)Gal(b1-4)GlcNAc(b1-3)Gal(b1-4)GlcNAc(b1-3)Gal(b1-4)GlcNAc
# How it was run: as §1
# [16] = biological target: Neu5Ac(a2-3)Gal(b1-4)GlcNAc(b1-3)Gal(b1-4)GlcNAc(b1-3)Gal(b1-4)GlcNAc(b1-2)Man(a1-3)[Neu5Ac(a2-3)Gal(b1-4)GlcNAc(b1-3)Gal(b1-4)GlcNAc(b1-3)Gal(b1-4)GlcNAc(b1-2)Man(a1-6)]GalNAc
# How it was run: as §1
# [17] = biological target: Neu5Ac(a2-3)Gal(b1-4)GlcNAc(b1-3)Gal(b1-4)GlcNAc(b1-3)GalNAc
# How it was run: as §1
# [18] = biological target: Neu5Ac(a2-3)Gal(b1-4)GlcNAc(b1-3)Gal(b1-4)GlcNAc(b1-3)[Neu5Ac(a2-3)Gal(b1-4)GlcNAc(b1-3)Gal(b1-4)GlcNAc(b1-6)]GalNAc
# How it was run: as §1
# [19] = biological target: Neu5Ac(a2-3)Gal(b1-4)GlcNAc(b1-3)Gal(b1-4)GlcNAc(b1-6)[Gal(b1-3)]GalNAc
# How it was run: as §1
# [20] = biological target: Neu5Ac(a2-3)Gal(b1-4)GlcNAc(b1-3)Gal(b1-4)[Fuc(a1-3)]GlcNAc
# How it was run: as §1
# [21] = biological target: Neu5Ac(a2-3)Gal(b1-4)GlcNAc(b1-3)GalNAc
# How it was run: as §1
# [22] = biological target: Neu5Ac(a2-3)Gal(b1-4)GlcNAc(b1-3)[Neu5Ac(a2-3)Gal(b1-4)GlcNAc(b1-6)]GalNAc
# How it was run: as §1
# [23] = biological target: Neu5Ac(a2-3)Gal(b1-4)GlcNAc(b1-6)GalNAc
# How it was run: as §1
# [24] = biological target: Neu5Ac(a2-3)Gal(b1-4)GlcNAc(b1-6)[Gal(b1-3)]GalNAc
# How it was run: as §1
# [25] = biological target: Neu5Ac(a2-3)Gal(b1-4)GlcNAc(b1-6)[Neu5Ac(a2-3)Gal(b1-3)]GalNAc
# How it was run: as §1
# [26] = biological target: Neu5Ac(a2-3)Gal(b1-4)GlcNAc6S
# How it was run: as §1
# [27] = biological target: Neu5Ac(a2-3)Gal(b1-4)[Fuc(a1-3)]GlcNAc
# How it was run: as §1
# [28] = biological target: Neu5Ac(a2-3)Gal(b1-4)[Fuc(a1-3)]GlcNAc(b1-2)Man
# How it was run: as §1
# [29] = biological target: Neu5Ac(a2-3)Gal(b1-4)[Fuc(a1-3)]GlcNAc(b1-3)Gal
# How it was run: as §1
# [30] = biological target: Neu5Ac(a2-3)Gal(b1-4)[Fuc(a1-3)]GlcNAc(b1-3)Gal(b1-4)GlcNAc
# How it was run: as §1
# [31] = biological target: Neu5Ac(a2-3)Gal(b1-4)[Fuc(a1-3)]GlcNAc(b1-3)Gal(b1-4)[Fuc(a1-3)]GlcNAc(b1-3)Gal(b1-4)[Fuc(a1-3)]GlcNAc
# How it was run: as §1
# [32] = biological target: Neu5Ac(a2-3)Gal(b1-4)[Fuc(a1-3)]GlcNAc(b1-3)GalNAc
# How it was run: as §1
# [33] = biological target: Neu5Ac(a2-3)Gal(b1-4)[Fuc(a1-3)]GlcNAc(b1-6)[Gal(b1-3)]GalNAc
# How it was run: as §1
# [34] = biological target: Neu5Ac(a2-3)Gal(b1-4)[Fuc(a1-3)]GlcNAc(b1-6)[Neu5Ac(a2-3)Gal(b1-3)]GalNAc
# How it was run: as §1
# [35] = biological target: Neu5Ac(a2-3)Gal(b1-4)[Fuc(a1-3)]GlcNAc6S
# How it was run: as §1
# [36] = biological target: Neu5Ac(a2-3)Gal6S(b1-4)GlcNAc
# How it was run: as §1
# [37] = biological target: Neu5Ac(a2-3)Gal6S(b1-4)[Fuc(a1-3)]GlcNAc
# How it was run: as §1
binder,measurement,setting,value
"DCIR1 (Mus musculus), Q9QZ15 (protein) MASEITYAEVKFKNESNSLHTYSESPAAPREKPIRDLRKPGSPSLLLTSLMLLLLLLAITFLVAFIIYFQKYSQLLEEKKAAKNIMHNELNCTKSVSPMEDKVWSCCPKDWRLFGSHCYLVPTVSSSASWNKSEENCSRMGAHLVVIQSQEEQDFITGILDTHAAYFIGLWDTGHRQWQWVDQTPYEESITFWHNGEPSSGNEKCATIIYRWKTGWGWNDISCSLKQKSVCQMKKINL",glycan array binding signal (z-score),Neu5Ac(a2-3)Gal(b1-4)Glc,0.347
same,glycan array binding signal (z-score),[1],-0.596
same,glycan array binding signal (z-score),[2],1.09
same,glycan array binding signal (z-score),[3],-1.04
same,glycan array binding signal (z-score),[4],-0.829
same,glycan array binding signal (z-score),[5],-0.805
same,glycan array binding signal (z-score),[6],-1
same,glycan array binding signal (z-score),[7],-0.887
same,glycan array binding signal (z-score),[8],-1.1
same,glycan array binding signal (z-score),[9],0.375
same,glycan array binding signal (z-score),[10],-1.13
same,glycan array binding signal (z-score),[11],-1.17
same,glycan array binding signal (z-score),[12],-0.99
same,glycan array binding signal (z-score),[13],-0.797
same,glycan array binding signal (z-score),[14],-0.806
same,glycan array binding signal (z-score),[15],-0.844
same,glycan array binding signal (z-score),[16],1.55
same,glycan array binding signal (z-score),[17],-0.626
same,glycan array binding signal (z-score),[18],1.36
same,glycan array binding signal (z-score),[19],1.24
same,glycan array binding signal (z-score),[20],-0.586
same,glycan array binding signal (z-score),[21],-0.525
same,glycan array binding signal (z-score),[22],-0.075
same,glycan array binding signal (z-score),[23],-0.193
same,glycan array binding signal (z-score),[24],-0.308
same,glycan array binding signal (z-score),[25],-0.97
same,glycan array binding signal (z-score),[26],0.145
same,glycan array binding signal (z-score),[27],-0.67
same,glycan array binding signal (z-score),[28],-0.523
same,glycan array binding signal (z-score),[29],-1.11
same,glycan array binding signal (z-score),[30],-0.732
same,glycan array binding signal (z-score),[31],-0.703
same,glycan array binding signal (z-score),[32],1.28
same,glycan array binding signal (z-score),[33],0.596
same,glycan array binding signal (z-score),[34],0.06
same,glycan array binding signal (z-score),[35],-0.532
same,glycan array binding signal (z-score),[36],-0.885
same,glycan array binding signal (z-score),[37],-1

# An excerpt of these results, bar-delimited:
binder | measurement | setting | value
DCIR1 (Mus musculus), Q9QZ15 (protein) MASEITYAEVKFKNESNSLHTYSESPAAPREKPIRDLRKPGSPSLLLTSLMLLLLLLAITFLVAFIIYFQKYSQLLEEKKAAKNIMHNELNCTKSVSPMEDKVWSCCPKDWRLFGSHCYLVPTVSSSASWNKSEENCSRMGAHLVVIQSQEEQDFITGILDTHAAYFIGLWDTGHRQWQWVDQTPYEESITFWHNGEPSSGNEKCATIIYRWKTGWGWNDISCSLKQKSVCQMKKINL | glycan array binding signal (z-score) | [10] | -1.13
same | glycan array binding signal (z-score) | [11] | -1.17
